Test [1] has as its target full-length human GPR77 with C-terminal V5 epitope tag, expressed from the gB locus (gB:GPR77 virus / virions) (human) (UniProt Q9P296). As to the kind of experiment: labeled ligand probed on the VirD Array.
Test [2] shares this target. As to the kind of experiment: Cy5-labeled C5a at 1 µM probed on the VirD Array.

Protein sequences, listed by entry. Tags and fused reporters are not part of them. Residues count along the entry.
UniProt Q9P296: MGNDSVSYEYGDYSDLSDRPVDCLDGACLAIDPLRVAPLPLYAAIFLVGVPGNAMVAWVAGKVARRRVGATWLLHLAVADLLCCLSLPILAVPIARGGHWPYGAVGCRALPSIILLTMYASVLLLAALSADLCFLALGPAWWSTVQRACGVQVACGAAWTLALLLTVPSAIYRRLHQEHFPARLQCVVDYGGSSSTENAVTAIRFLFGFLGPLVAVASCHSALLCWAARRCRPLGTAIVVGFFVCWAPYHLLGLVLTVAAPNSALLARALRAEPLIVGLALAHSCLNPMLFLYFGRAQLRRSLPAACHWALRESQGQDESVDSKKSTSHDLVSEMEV
UniProt P01031, residues 678-751: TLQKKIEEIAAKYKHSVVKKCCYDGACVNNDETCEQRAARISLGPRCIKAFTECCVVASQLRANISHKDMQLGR

Results are given in words; binding and its absence hold for the method and conditions named. Some results given as binding are weak or reduced against the parent protein; the word gives no strength.

Take “complement anaphylatoxin C5a, Cy5-labeled (Abcam) (from UniProt P01031 678-751) (ligand)”: the binding entry in test [1] and in test [2] was “binds” each time.

Values taken from patent publication US20160355789A1.
